Assay type in all cases: cell-based
The target of experiment [1] is T1, RNA polymerase II (Mus musculus) (UniProt P08775+Q8CFI7+P97760+A0A3Q4L2S8+Q80UW8+P61219+P62488+Q923G2+P60898+O08740+Q63871+P62876). As to the kind of experiment: Inhibition of RNA polymerase II in mouse B16-F1 migrating cells assessed as fold change in Ftl1-RNA stability at 0.1 mM measured by ChIP-seq analysis relative to control cells.
In experiment [2] the target is T1, RNA polymerase II (Mus musculus). The experiment can be described thus: Inhibition of RNA polymerase II in mouse B16-F1 migrating cells assessed as fold change in Ralgds-RNA stability at 0.1 mM measured by ChIP-seq analysis relative to control cells.
For experiment [3] the target is unchanged. As to the kind of experiment: Inhibition of RNA polymerase II in mouse B16-F1 migrating cells assessed as fold change in Syngr1-RNA stability at 0.1 mM measured by ChIP-seq analysis relative to control cells.
For experiment [4] the target is unchanged. As to the kind of experiment: Inhibition of RNA polymerase II in mouse B16-F1 migrating cells assessed as fold change in Rbm15b-RNA stability at 0.1 mM measured by ChIP-seq analysis relative to control cells.
Experiment [5] has the same target. The experiment can be described thus: Inhibition of RNA polymerase II in mouse B16-F1 migrating cells assessed as fold change in Ano3-RNA stability at 0.1 mM measured by ChIP-seq analysis relative to control cells.
For experiment [6] the target is unchanged. As to the kind of experiment: Inhibition of RNA polymerase II in mouse B16-F1 migrating cells assessed as fold change in Smug1-RNA stability at 0.1 mM measured by ChIP-seq analysis relative to control cells.
For experiment [7] the target is unchanged. As to the kind of experiment: Inhibition of RNA polymerase II in mouse B16-F1 migrating cells assessed as fold change in Top2a-RNA stability at 0.1 mM measured by ChIP-seq analysis relative to control cells.
Experiment [8] has the same target. The experiment can be described thus: Inhibition of RNA polymerase II in mouse B16-F1 migrating cells assessed as fold change in Eif3a-RNA stability at 0.1 mM measured by ChIP-seq analysis relative to control cells.
The target is the same in experiment [9]. As to the kind of experiment: Inhibition of RNA polymerase II in mouse B16-F1 migrating cells assessed as fold change in Scfd1-RNA stability at 0.1 mM measured by ChIP-seq analysis relative to control cells.
For experiment [10] the target is unchanged. As to the kind of experiment: Inhibition of RNA polymerase II in mouse B16-F1 migrating cells assessed as fold change in Parpbp-RNA stability at 0.1 mM measured by ChIP-seq analysis relative to control cells.
The target is the same in experiment [11]. As to the kind of experiment: Inhibition of RNA polymerase II in mouse B16-F1 migrating cells assessed as fold change in Qk-RNA stability at 0.1 mM measured by ChIP-seq analysis relative to control cells.
The target is the same in experiment [12]. The experiment can be described thus: Inhibition of RNA polymerase II in mouse B16-F1 migrating cells assessed as fold change in Nudt12-RNA stability at 0.1 mM measured by ChIP-seq analysis relative to control cells.
Experiment [13] has the same target. As to the kind of experiment: Inhibition of RNA polymerase II in mouse B16-F1 migrating cells assessed as fold change in Il1rap-RNA stability at 0.1 mM measured by ChIP-seq analysis relative to control cells.
For experiment [14] the target is unchanged. As to the kind of experiment: Inhibition of RNA polymerase II in mouse B16-F1 migrating cells assessed as fold change in Dhx9-RNA stability at 0.1 mM measured by ChIP-seq analysis relative to control cells.
Experiment [15] has the same target. The experiment can be described thus: Inhibition of RNA polymerase II in mouse B16-F1 migrating cells assessed as fold change in Tmem161b-RNA stability at 0.1 mM measured by ChIP-seq analysis relative to control cells.
Experiment [16] has the same target. As to the kind of experiment: Inhibition of RNA polymerase II in mouse B16-F1 migrating cells assessed as fold change in Zfp638-RNA stability at 0.1 mM measured by ChIP-seq analysis relative to control cells.
For experiment [17] the target is unchanged. As to the kind of experiment: Inhibition of RNA polymerase II in mouse B16-F1 migrating cells assessed as fold change in Klf10-RNA stability at 0.1 mM measured by ChIP-seq analysis relative to control cells.
The target of experiment [18] is Histone-lysine N-methyltransferase EZH2 (Mus musculus) (UniProt Q61188). As to the kind of experiment: Inhibition of EZH2 in mouse B16-F1 migrating cells assessed as fold change in H3K27me3-dependent regulated Ppm1e-mRNA expression at 3 uM measured by ChIP-seq analysis relative to control cells.
Experiment [19] shares this target. The experiment can be described thus: Inhibition of EZH2 in mouse B16-F1 migrating cells assessed as fold change in H3K27me3-dependent regulated Junb-mRNA expression at 3 uM measured by ChIP-seq analysis relative to control cells.
Experiment [20] shares this target. As to the kind of experiment: Inhibition of EZH2 in mouse B16-F1 migrating cells assessed as fold change in H3K27me3-independent regulated Lef1-mRNA expression at 3 uM measured by ChIP-seq analysis relative to control cells.
Experiment [21] shares this target. The experiment can be described thus: Inhibition of EZH2 in mouse B16-F1 migrating cells assessed as fold change in H3K27me3-independent regulated Fam162a-mRNA expression at 3 uM measured by ChIP-seq analysis relative to control cells.
Experiment [22] shares this target. As to the kind of experiment: Inhibition of EZH2 in mouse B16-F1 migrating cells assessed as fold change in H3K27me3-independent regulated Itga5-mRNA expression at 3 uM measured by ChIP-seq analysis relative to control cells.
For experiment [23] the target is unchanged. The experiment can be described thus: Inhibition of EZH2 in mouse B16-F1 migrating cells assessed as fold change in H3K27me3-buffered regulated Tfrc-mRNA expression at 3 uM measured by ChIP-seq analysis relative to control cells.
Experiment [24] shares this target. The experiment can be described thus: Inhibition of EZH2 in mouse B16-F1 migrating cells assessed as fold change in H3K27me3-buffered regulated Zfp276-mRNA expression at 3 uM measured by ChIP-seq analysis relative to control cells.
The target is the same in experiment [25]. The experiment can be described thus: Inhibition of EZH2 in mouse B16-F1 migrating cells assessed as fold change in H3K27me3-buffered regulated Pank1-mRNA expression at 3 uM measured by ChIP-seq analysis relative to control cells.
Experiment [26] shares this target. The experiment can be described thus: Inhibition of EZH2 in mouse B16-F1 migrating cells assessed as fold change in H3K27me3-buffered regulated Cpeb2-mRNA expression at 3 uM measured by ChIP-seq analysis relative to control cells.
The target is the same in experiment [27]. The experiment can be described thus: Inhibition of EZH2 in mouse B16-F1 migrating cells assessed as fold change in H3K27me3-buffered regulated Grasp-mRNA expression at 3 uM measured by ChIP-seq analysis relative to control cells.
The target is the same in experiment [28]. As to the kind of experiment: Inhibition of EZH2 in mouse B16-F1 migrating cells assessed as fold change in H3K27me3-buffered regulated Rad51ap1-mRNA expression at 3 uM measured by ChIP-seq analysis relative to control cells.
Experiment [29] shares this target. The experiment can be described thus: Inhibition of EZH2 in mouse B16-F1 migrating cells assessed as fold change in H3K27me3-buffered regulated Wdcp-mRNA expression at 3 uM measured by ChIP-seq analysis relative to control cells.
Experiment [30] has the same target. The experiment can be described thus: Inhibition of EZH2 in mouse B16-F1 migrating cells assessed as fold change in H3K27me3-buffered regulated 1810026B05Rik-mRNA expression at 3 uM measured by ChIP-seq analysis relative to control cells.

By UniProt entry, the sequences of proteins in these tests, tags left out.
UniProt Q61188, whole entry: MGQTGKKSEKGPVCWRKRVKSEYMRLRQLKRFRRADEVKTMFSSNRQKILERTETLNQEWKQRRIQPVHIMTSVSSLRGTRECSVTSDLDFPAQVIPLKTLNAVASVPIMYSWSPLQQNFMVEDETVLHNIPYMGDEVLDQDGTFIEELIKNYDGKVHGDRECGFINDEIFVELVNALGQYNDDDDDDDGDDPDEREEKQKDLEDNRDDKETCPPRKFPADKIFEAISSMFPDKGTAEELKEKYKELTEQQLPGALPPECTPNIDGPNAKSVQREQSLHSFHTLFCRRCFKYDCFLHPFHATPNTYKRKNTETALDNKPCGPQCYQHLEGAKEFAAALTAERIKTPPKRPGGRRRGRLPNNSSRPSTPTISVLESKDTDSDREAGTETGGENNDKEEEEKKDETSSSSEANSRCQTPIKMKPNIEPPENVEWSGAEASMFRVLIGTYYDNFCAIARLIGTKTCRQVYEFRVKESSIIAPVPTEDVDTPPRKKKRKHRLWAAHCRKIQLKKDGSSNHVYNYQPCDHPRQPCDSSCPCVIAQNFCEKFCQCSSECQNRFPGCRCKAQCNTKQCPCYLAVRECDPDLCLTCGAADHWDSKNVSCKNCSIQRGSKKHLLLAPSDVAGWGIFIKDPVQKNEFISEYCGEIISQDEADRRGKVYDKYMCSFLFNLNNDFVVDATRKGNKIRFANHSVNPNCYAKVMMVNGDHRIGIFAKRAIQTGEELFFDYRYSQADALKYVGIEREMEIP

Each structure is given as a SMILES string. Further values from the same series stand in other lists.

In the case of `OC[C@H]1O[C@@H](n2cnc3cc(Cl)c(Cl)cc32)[C@H](O)[C@@H]1O`, the log2FC in experiment [1] is 0.59; in experiment [2], 0.56; in [3] it was 0.38; in [4] it was -0.46; in experiment [5], -0.5; in [6], -0.52. Besides, the log2FC is -0.55 in [7]; -0.59 in [8]; -0.59 in [9]; -0.62 in [10]; -0.63 in [11]; -0.66 in [12]. The log2FC in experiment [13] is -0.66; in [14] it was -0.68; in experiment [15], -0.69; in experiment [16], -0.79; in [17], -0.82.

With `CCCc1cc(C)[nH]c(=O)c1CNC(=O)c1cc(-c2ccnc(N3CCN(C)CC3)c2)cc2c1cnn2C(C)C`, the log2FC is 0.56 in experiment [18]; 0.19 in experiment [19]; 1.23 in experiment [20]; 0.57 in [21]; 0.42 in [22]; -0.38 in [23]. The log2FC in experiment [24] is -0.39; in experiment [25], -0.4; in experiment [26], -0.41; in experiment [27], -0.48; in experiment [28], -0.49; in experiment [29], -0.52. Besides, the log2FC in [30] is -0.96.

Source of the values: ChEMBL document CHEMBL5674883, “The Heterochromatin Landscape in Migrating Cells and the Importance of H3K27me3 for Associated Transcriptome Alterations” (Cells, 2018).
